Results are given in words; binding and its absence hold for the method and conditions named. In cells and extracts the contact can be indirect. Some entries that bind do so weakly or less than the wild type.
Legend:
[1] = target: SMAD2 protein (in NIH-3T3 cells) (mouse (endogenous in NIH-3T3)) (UniProt Q62432); test: co-IP; Flag-tagged WWP2-FL, WWP2-N and WWP2-C ectopically expressed in NIH-3T3 cells; cell lysates, Pierce Direct Magnetic IP/CO-IP kit, western blot; SMAD7 rows following TGFβ1 stimulation
[2] = target: SMAD7 (in NIH-3T3 cells) (mouse (endogenous in NIH-3T3)) (UniProt O35253); test: as above
[3] = target: SMAD2, endogenous (mouse cardiac (myo)fibroblasts) (mouse (endogenous in primary cardiac (myo)fibroblasts)) (UniProt Q62432); test: co-IP; endogenous proteins in mouse WT primary cardiac (myo)fibroblasts, TGFβ1 stimulation; cell lysates, Pierce Direct Magnetic IP/CO-IP kit, western blot
[4] = target: SMAD7 (primary (myo)fibroblasts) (mouse (endogenous in primary cardiac (myo)fibroblasts)) (UniProt O35253); test: as above

Amino acid sequences for entries named in this document (tags omitted).
UniProt Q62432: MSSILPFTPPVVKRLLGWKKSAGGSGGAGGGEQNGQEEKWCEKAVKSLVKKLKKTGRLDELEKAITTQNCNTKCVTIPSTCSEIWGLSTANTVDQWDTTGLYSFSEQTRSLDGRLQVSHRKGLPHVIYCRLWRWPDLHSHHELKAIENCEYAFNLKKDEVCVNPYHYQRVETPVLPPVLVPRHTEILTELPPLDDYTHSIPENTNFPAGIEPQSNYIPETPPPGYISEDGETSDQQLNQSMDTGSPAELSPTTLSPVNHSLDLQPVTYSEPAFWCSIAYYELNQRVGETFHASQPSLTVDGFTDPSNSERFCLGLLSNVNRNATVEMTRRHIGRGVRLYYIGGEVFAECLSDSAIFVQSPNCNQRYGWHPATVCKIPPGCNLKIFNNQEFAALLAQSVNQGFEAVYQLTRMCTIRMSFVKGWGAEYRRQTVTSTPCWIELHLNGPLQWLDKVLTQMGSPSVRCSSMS
UniProt O35253: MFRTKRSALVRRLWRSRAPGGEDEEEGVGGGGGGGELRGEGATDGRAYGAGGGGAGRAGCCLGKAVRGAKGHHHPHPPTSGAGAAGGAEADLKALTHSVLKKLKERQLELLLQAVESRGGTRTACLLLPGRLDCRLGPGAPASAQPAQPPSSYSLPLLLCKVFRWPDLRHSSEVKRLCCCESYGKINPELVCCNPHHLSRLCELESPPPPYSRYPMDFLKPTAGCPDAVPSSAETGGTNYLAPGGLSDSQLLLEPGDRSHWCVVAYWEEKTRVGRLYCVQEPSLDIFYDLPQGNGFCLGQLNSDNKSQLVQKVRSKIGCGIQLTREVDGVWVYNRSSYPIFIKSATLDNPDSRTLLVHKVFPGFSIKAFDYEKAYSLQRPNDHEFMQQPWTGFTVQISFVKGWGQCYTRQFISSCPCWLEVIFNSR
UniProt Q9DBH0: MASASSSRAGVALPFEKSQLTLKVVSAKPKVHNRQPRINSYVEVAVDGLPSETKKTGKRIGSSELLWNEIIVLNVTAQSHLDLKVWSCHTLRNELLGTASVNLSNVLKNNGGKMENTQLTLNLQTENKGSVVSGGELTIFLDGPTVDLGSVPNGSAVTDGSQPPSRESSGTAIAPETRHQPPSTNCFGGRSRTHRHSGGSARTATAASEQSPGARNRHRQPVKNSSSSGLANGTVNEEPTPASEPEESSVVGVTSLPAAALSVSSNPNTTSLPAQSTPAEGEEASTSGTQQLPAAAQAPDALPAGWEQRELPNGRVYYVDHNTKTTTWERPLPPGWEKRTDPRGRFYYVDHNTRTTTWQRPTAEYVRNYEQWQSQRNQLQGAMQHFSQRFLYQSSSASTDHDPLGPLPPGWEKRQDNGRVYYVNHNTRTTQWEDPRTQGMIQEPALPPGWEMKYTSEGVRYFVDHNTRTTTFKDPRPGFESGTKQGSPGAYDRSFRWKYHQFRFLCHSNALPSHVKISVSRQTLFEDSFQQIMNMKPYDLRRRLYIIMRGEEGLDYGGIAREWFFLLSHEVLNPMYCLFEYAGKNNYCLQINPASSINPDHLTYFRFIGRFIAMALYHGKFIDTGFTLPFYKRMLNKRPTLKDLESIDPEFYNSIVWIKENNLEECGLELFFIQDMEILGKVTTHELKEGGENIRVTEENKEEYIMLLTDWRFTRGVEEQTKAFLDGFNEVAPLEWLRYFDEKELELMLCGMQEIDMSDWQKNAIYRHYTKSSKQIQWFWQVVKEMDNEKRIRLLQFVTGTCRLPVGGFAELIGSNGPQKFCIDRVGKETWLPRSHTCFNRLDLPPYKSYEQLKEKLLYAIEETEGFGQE

| Substance | binding [1] | binding [2] | binding [3] | binding [4] |
| --- | --- | --- | --- | --- |
| Flag-tagged WWP2-FL (full-length isoform of the E3 ubiquitin ligase WWP2) (from UniProt Q9DBH0 1-870) (enzyme) | binds | binds | – | – |
| WWP2-FL, endogenous (mouse cardiac (myo)fibroblasts) (from UniProt Q9DBH0 1-870) (enzyme) | – | – | binds | binds |

From paper PMC6689010
